Test results published in doi:10.1101/2021.06.06.447241 (bioRxiv, 2021).
No constants are given. Whether binding was seen depends on the method and setting. Some binding calls cover weakened binding; strength is not graded here.

Sequences of proteins named here, by UniProt entry; tags and fusion partners are left off. A change or cut given only in a name is not applied to a line headed by its entry.
UniProt P15992: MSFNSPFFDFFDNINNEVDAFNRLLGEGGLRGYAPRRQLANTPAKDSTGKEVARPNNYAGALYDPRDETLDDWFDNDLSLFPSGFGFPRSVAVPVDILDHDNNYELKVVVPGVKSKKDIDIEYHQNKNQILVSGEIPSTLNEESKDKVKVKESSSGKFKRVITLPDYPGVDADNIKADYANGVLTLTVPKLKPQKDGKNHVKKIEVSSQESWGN
UniProt P25491: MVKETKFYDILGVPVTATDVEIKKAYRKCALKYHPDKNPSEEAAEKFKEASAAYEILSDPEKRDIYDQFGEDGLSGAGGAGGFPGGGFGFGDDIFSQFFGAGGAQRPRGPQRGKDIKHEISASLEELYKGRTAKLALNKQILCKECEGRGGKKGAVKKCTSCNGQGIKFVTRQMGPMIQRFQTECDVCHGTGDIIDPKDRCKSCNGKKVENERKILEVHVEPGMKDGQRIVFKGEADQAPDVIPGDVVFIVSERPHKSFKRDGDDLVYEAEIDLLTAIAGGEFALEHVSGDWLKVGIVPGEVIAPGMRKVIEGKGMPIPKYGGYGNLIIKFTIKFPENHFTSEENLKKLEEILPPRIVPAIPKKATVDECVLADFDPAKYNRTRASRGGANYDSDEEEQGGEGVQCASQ

Molecular target: Hsp26::luciferase complex (yeast (Saccharomyces cerevisiae) | firefly) (UniProt P15992)
Experiment: cross-linking

Substance: Ydj1 (Hsp40) (from UniProt P25491 1-409)
- binding: binds
